Test results from PMC10567511.
These are yes or no findings as the source states them, for the method shown. Binding seen in cells or lysates may run through a third protein. Some entries that bind do so weakly or less than the wild type. For some of these results: Sequences can lack the tags named with a protein.

The chains behind the UniProt entries cited, without tags or fusion partners. Residues count along the entry.
UniProt P40189, residues 23-918: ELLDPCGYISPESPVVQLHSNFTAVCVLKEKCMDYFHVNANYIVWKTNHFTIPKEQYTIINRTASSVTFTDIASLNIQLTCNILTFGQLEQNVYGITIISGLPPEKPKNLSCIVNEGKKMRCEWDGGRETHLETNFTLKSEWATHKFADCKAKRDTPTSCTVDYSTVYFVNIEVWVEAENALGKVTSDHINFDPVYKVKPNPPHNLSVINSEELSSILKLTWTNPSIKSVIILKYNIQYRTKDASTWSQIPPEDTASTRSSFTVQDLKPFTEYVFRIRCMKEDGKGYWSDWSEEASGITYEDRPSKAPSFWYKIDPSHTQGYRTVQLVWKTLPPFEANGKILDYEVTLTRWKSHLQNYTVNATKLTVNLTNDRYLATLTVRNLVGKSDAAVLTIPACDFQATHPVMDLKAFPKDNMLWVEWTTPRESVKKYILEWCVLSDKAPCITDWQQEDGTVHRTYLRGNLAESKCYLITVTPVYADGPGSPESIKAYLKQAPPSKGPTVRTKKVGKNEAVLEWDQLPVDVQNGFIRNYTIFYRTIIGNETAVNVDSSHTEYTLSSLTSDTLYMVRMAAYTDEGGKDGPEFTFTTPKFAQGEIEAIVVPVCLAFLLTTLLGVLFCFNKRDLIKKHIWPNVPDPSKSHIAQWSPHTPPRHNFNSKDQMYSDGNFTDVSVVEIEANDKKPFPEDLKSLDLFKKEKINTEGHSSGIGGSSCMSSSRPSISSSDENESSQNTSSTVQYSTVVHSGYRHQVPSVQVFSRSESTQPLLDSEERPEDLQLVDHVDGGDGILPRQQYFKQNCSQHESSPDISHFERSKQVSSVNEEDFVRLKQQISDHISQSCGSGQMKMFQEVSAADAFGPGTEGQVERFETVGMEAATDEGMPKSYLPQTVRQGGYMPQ

B1: Leukemia inhibitory factor receptor (LIFR), endogenous in human aortic SMC (receptor, UniProt P42702 45-1097)
chain: QKKGAPHDLKCVTNNLQVWNCSWKAPSGTGRGTDYEVCIENRSRSCYQLEKTSIKIPALSHGDYEITINSLHDFGSSTSKFTLNEQNVSLIPDTPEILNLSADFSTSTLYLKWNDRGSVFPHRSNVIWEIKVLRKESMELVKLVTHNTTLNGKDTLHHWSWASDMPLECAIHFVEIRCYIDNLHFSGLEEWSDWSPVKNISWIPDSQTKVFPQDKVILVGSDITFCCVSQEKVLSALIGHTNCPLIHLDGENVAIKIRNISVSASSGTNVVFTTEDNIFGTVIFAGYPPDTPQQLNCETHDLKEIICSWNPGRVTALVGPRATSYTLVESFSGKYVRLKRAEAPTNESYQLLFQMLPNQEIYNFTLNAHNPLGRSQSTILVNITEKVYPHTPTSFKVKDINSTAVKLSWHLPGNFAKINFLCEIEIKKSNSVQEQRNVTIKGVENSSYLVALDKLNPYTLYTFRIRCSTETFWKWSKWSNKKQHLTTEASPSKGPDTWREWSSDGKNLIIYWKPLPINEANGKILSYNVSCSSDEETQSLSEIPDPQHKAEIRLDKNDYIISVVAKNSVGSSPPSKIASMEIPNDDLKIEQVVGMGKGILLTWHYDPNMTCDYVIKWCNSSRSEPCLMDWRKVPSNSTETVIESDEFRPGIRYNFFLYGCRNQGYQLLRSMIGYIEELAPIVAPNFTVEDTSADSILVKWEDIPVEELRGFLRGYLFYFGKGERDTSKMRVLESGRSDIKVKNITDISQKTLRIADLQGKTSYHLVLRAYTDGGVGPEKSMYVVTKENSVGLIIAILIPVAVAVIVGVVTSILCYRKREWIKETFYPDIPNPENCKALQFQKSVCEGSSALKTLEMNPCTPNNVEVLETRSAFPKIEDTEIISPVAERPEDRSDAEPENHVVVSYCPPIIEEEIPNPAADEAGGTAQVIYIDVQSMYQPQAKPEEEQENDPVGGAGYKPQMHLPINSTVEDIAAEEDLDKTAGYRPQANVNTWNLVSPDSPRSIDSNSEIVSFGSPCSINSRQFLIPPKDEDSPKSNGGGWSFTNFFQNKPND

Key:
[1] = target: T1, Reversion-inducing cysteine-rich protein with Kazal motifs (RECK), endogenous in human aortic SMC (human (endogenous in primary human aortic SMC)) (UniProt O95980); assay: co-IP; whole cell extracts of primary human aortic SMC incubated with anti-RECK antibodies immobilized on agarose beads; washed three times in 50 mM Tris-Cl, 150 mM NaCl, 0.1% Nonidet P-40; eluted by boiling in SDS sample buffer; IB with LIFR or gp130 antibodies; cells at basal conditions, exposed to CT-1 (15 min), or transduced with Ad.RECK or Ad.GFP
T1 sequence: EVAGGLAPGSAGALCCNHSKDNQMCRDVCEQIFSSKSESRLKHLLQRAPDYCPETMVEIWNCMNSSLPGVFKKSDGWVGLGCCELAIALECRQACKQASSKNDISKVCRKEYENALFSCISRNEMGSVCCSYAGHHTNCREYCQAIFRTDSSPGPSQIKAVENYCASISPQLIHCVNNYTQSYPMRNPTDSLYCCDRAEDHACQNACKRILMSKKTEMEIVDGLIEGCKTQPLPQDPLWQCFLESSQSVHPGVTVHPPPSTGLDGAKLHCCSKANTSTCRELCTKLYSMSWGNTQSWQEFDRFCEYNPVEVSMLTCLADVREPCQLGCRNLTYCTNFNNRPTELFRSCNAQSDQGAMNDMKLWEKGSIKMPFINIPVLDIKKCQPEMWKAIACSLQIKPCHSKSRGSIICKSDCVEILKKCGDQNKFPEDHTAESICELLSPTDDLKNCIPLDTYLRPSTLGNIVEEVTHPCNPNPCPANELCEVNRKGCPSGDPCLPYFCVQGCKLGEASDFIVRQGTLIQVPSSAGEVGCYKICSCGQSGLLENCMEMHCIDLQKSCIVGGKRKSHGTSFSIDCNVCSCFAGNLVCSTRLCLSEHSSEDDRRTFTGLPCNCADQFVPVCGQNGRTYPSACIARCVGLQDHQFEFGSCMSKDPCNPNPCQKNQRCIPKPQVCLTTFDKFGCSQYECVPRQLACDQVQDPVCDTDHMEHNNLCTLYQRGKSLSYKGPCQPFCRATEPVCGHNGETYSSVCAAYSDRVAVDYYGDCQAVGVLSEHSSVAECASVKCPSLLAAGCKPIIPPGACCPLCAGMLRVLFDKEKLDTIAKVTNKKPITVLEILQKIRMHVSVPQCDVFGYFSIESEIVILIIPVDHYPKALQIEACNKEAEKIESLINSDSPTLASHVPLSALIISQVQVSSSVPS

[2] = target: T2, Ectopically expressed RECK (Ad.RECK, adenoviral vector expressing human RECK cDNA under the CMV promoter) (human) (UniProt O95980); assay: as above
T2 sequence: T1 sequence

binding [1] | binding [2] | Molecule
binds | binds | Glycoprotein 130 (gp130; interleukin 6 cytokine family signal transducer/IL6ST), endogenous in human aortic SMC (from UniProt P40189 23-918) (receptor)
binds | binds | B1
